Reference: patent US12023390B2, “Isomerically pure 18F-labelled tetrahydrofolates” (MERCK PATENT GMBH, priority 2017, dated 2024)
Some of these results come from one statement about several compounds together.

System: FR-positive KB cells
Assay: Cell uptake and internalization using FR-positive KB cells
Assay type: cell-based
Conditions: co-incubation with an excess of folic acid
Procedure: In order to investigate FR-specific cell uptake and internalization, cell uptake and internalization of 6R-[^18F]1 and 6S-[^18F]1 were carried out using FR-positive KB cells. Cell uptake increased constantly over time for both diastereoisomers resulting in an uptake of about 60% (calculated per 0.3 mg of protein) of total added radioactivity after 3 h of incubation at 37° C. (FIG. 22).

“6R-3′-aza-2′-[^18F]fluoro-5-MTHF [6R-[^18F]1]” was tested, and the “radiofolate uptake on blocking of FR-α” value was “less than 0.2%”.
With “6S-3′-aza-2′-[^18F]fluoro-5-MTHF [6S-[^18F]1]” the “radiofolate uptake on blocking of FR-α” value was “less than 0.2%”.
